Source: patent publication US20230416305A1
These are yes or no findings as the source states them, for the method shown. Some results given as binding are weak or reduced against the parent protein; the word gives no strength.

Amino acid sequences for entries named in this document (tags omitted). Residues count along the entry.
UniProt P46531, residues 1872-2126: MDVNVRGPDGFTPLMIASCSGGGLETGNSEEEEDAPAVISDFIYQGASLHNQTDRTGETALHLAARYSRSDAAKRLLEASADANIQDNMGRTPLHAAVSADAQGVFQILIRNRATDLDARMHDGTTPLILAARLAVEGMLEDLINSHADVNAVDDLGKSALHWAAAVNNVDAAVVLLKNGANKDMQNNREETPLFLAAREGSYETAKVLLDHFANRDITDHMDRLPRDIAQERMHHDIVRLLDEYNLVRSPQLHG

Molecular target: ANK domain of Notch1 intracellular segment N1ICD (UniProt P46531)
Assay: SPR

binding | Binder
binds | YAKRIFYQLLSKEL [AH2 (α-helix 2 of N1DARP)]
binds | YAKRIFYQLLSKQL [modified AH2 (mAH2), modified α-helice 2]
